In PubChem BioAssay AID1487 (National Center for Advancing Translational Sciences (NCATS), 2009):
The other results are listed elsewhere or left out. The main result of the screen is listed elsewhere. These columns were measured beside it and carry no call. Compounds called inactive in the main read-out are mostly missing here. Potencies come from curve fits of mixed quality, noted in brackets.

Assay: qHTS Assay for Modulators of Lamin A Splicing
Conditions: HeLa LMNA splicing GFP/RFP minigene ratio, 48 h
Procedure, shortened: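 S3 HeLa stable clones carrying a lamin A-EGFP splicing minigene plus DsRed2 were seeded at 600 cells/well in Opti-MEM with 2% FBS, pin-dosed and incubated 48 h at 37°C. Acumen cytometry (488 nm) gave the GFP/RFP total-intensity ratio.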

[1] = measured here: RFP viability control channel
[2] = measured here: GFP splicing reporter channel

SMILES	AC50 [1]	AC50 [2]
O=C(Cc1ccc(Br)cc1)c1ccc(O)cc1O	20 µM [rising, single point]	–
O=C(CCCn1c(=S)[nH]c2cc3c(cc2c1=O)OCO3)N1CCN(c2ccc(F)cc2)CC1	–	15.8 µM [rising, partial curve, poor fit]
COc1ccc(OCCNC(=O)c2cccc(Oc3ccc(C(F)(F)F)cc3[N+](=O)[O-])c2)cc1	6.31 µM [rising, full curve]	7.08 µM [rising, partial curve, poor fit]
CC(Oc1ccc(Cl)cc1Cl)C(=O)Nc1ccncc1 (stereo not given)	5.01 µM [rising, partial curve]	–
O=C(Nc1ccc(Cl)c(Cl)c1)OCc1cnc(Cl)s1	0.794 µM [rising, partial curve]	–
CCOC1=NN(c2ccc(Cl)cc2)C(=O)/C1=C\N(C)C	–	28.2 µM [falling, single point]
O=C1Nc2ccccc2C12Nc1ccccc1S2 (stereo not given)	35.5 µM [falling, single point]	35.5 µM [falling, single point]
CC(C(=O)Nc1sc2c(c1C(=O)NCC1CCCO1)CCC2)N1C(=O)c2ccccc2C1=O (stereo not given)	–	0.1 µM [falling, full curve, poor fit]
CCOc1ccc(S(=O)(=O)Nc2cccc(C)c2)c2cccnc12	6.31 µM [rising, single point]	5.01 µM [rising, partial curve]
COc1cc(NC(=O)NCCN2CCN(c3ccc(Cl)cc3)CC2)ccc1C	31.6 µM [rising, single point]	–
COc1ccc(S(=O)(=O)NCCS(=O)(=O)N2CCN(c3ccccc3F)CC2)cc1	–	0.0112 µM [falling, full curve]
CCN(CC)CCCNC(=S)N(Cc1cccs1)Cc1cc2cc3c(cc2[nH]c1=O)OCCO3	35.5 µM [falling, single point]	35.5 µM [falling, single point]
C/C(=N\N1C(=O)c2ccccc2NC1c1ccco1)c1ccccc1O (stereo not given)	11.2 µM [rising, partial curve]	–
Cc1cc(C)cc(NC(=O)CN(C)S(=O)(=O)c2cccc3nsnc23)c1	20 µM [rising, single point]	–
O=C(c1cccc(NS(=O)(=O)c2ccc(F)c(F)c2)c1)N1CCN(Cc2ccccc2)CC1	10 µM [rising, single point]	–
C=CCn1c(=O)c(C(=O)Nc2cccnc2)c(O)c2ccccc21	35.5 µM [rising, single point]	–
O=C(N/N=C/c1cc(Br)ccc1O)c1cccc(N2CCCC2=O)c1	20 µM [rising, partial curve]	11.2 µM [rising, partial curve]
Cc1ccc(C)n1-c1ccc(C(=O)NCC2CCCO2)cc1 (stereo not given)	7.08 µM [falling, partial curve]	–

SMILES	AC50 [1]	AC50 [2]
CCOc1ccccc1C(=O)NCC(c1ccc(N(C)C)cc1)N1CCc2ccccc21 (stereo not given)	–	12.6 µM [falling, partial curve, poor fit]
COc1ccc(NC(=O)CSc2ccc3ccccc3c2)cc1S(=O)(=O)N1CCCCC1	17.8 µM [rising, single point]	12.6 µM [rising, single point]
Cc1c(C(=O)NCc2ccc(F)cc2)sc2nc(-c3ccccc3)cn12	5.01 µM [rising, partial curve]	3.98 µM [rising, partial curve]
COC(=O)c1c(-c2ccc(Cl)cc2)noc1N1CCN(c2cccc(OC)c2)CC1	5.01 µM [falling, full curve]	3.55 µM [falling, full curve]
CCOc1ccc(CN(C)C(C)C(=O)Nc2ccc([N+](=O)[O-])cc2Cl)cc1OC (stereo not given)	15.8 µM [rising, partial curve]	12.6 µM [rising, single point]
CCc1ccc(CN(C)C(=O)c2cc(COc3c(F)cccc3F)on2)cc1	7.08 µM [falling, partial curve, poor fit]	7.94 µM [falling, partial curve, poor fit]
COc1cc2c(cc1NC(=O)CSc1ccccc1)oc1ccccc12	22.4 µM [rising, partial curve]	–
Cc1ccc(CSc2nnc(-c3cccc(S(=O)(=O)N4CCOCC4)c3)n2C2CCCC2)cc1	28.2 µM [rising, single point]	–
COCCCCC(=NOCCN)c1ccc(C(F)(F)F)cc1	0.0447 µM [falling, full curve]	0.0708 µM [falling, full curve]
Cc1ccc(Cl)cc1N1CCN(C(=O)COc2ccc3c(c2)CCC3)CC1	35.5 µM [rising, single point]	–
CCNc1ncc2nc(-c3ccc(Cl)cc3)c(=O)n(Cc3cccc(OC)c3)c2n1	22.4 µM [falling, single point]	20 µM [falling, single point]
Cc1ccc(NC(=O)c2cc(-c3cccs3)on2)cc1C	8.91 µM [falling, full curve]	3.16 µM [falling, full curve]
CC(C)(C)c1nnc2sc(SCC(=O)c3ccc4c(c3)OCCO4)nn2c1=O	–	22.4 µM [falling, single point]
Nc1nc(CSc2nnnn2-c2ccccc2)nc(N2CCCc3ccccc32)n1	20 µM [rising, single point]	15.8 µM [rising, single point]
CCN1C(=O)C2(C(C(=O)c3cc4ccccc4o3)=C(O)C(=O)N2CCCN(C)C)c2ccccc21 (stereo not given)	0.126 µM [rising, full curve]	0.794 µM [rising, partial curve, poor fit]
Cc1oc(-c2ccccc2)nc1CNS(=O)(=O)c1ccc(Cl)cc1	15.8 µM [rising, partial curve]	–
CCOC(=O)c1ccccc1NC(=O)Cn1cnc2c1c(=O)n(C)c(=O)n2C	–	11.2 µM [rising, partial curve, poor fit]

Part of the list above in order of heavy-atom count, ascending:
SMILES	AC50 [1]	AC50 [2]
O=C(Nc1ccc(Cl)c(Cl)c1)OCc1cnc(Cl)s1	0.794 µM [rising, partial curve]	–
C=CCn1c(=O)c(C(=O)Nc2cccnc2)c(O)c2ccccc21	35.5 µM [rising, single point]	–
COC(=O)c1c(-c2ccc(Cl)cc2)noc1N1CCN(c2cccc(OC)c2)CC1	5.01 µM [falling, full curve]	3.55 µM [falling, full curve]
